Assay results published in patent publication US10517954B2 (AMGEN INC., priority 2016, dated 2019).

Assay: peptide synthesis
Conditions: late stage modification step, methanesulfonate

Row | Substance | step yield [%]
1 | 4-(4-Acetoxy-2-(prop-2-yn-1-yloxy)benzyl)-4-((4S,7S,10S,13S)-10-benzyl-7-isobutyl-15-methyl-13-((R)-2-methyloxirane-2-carbonyl)-2,5,8,11-tetraoxo-4-phenethyl-3,6,9,12-tetraazahexadecyl)morpholin-4-ium methanesulfonate | 74
2 | 4-((4S,7S,10S,13S)-10-Benzyl-7-isobutyl-15-methyl-13-((R)-2-methyloxirane-2-carbonyl)-2,5,8,11-tetraoxo-4-phenethyl-3,6,9,12-tetraazahexadecyl)-4-(2-(prop-2-yn-1-yloxy)-4-(propionyloxy)benzyl)morpholin-4-ium methanesulfonate | 97
3 | 4-(4-Acetoxy-3-(prop-2-yn-1-yloxy)benzyl)-4-((4S,7S,10S,13S)-10-benzyl-7-isobutyl-15-methyl-13-((R)-2-methyloxirane-2-carbonyl)-2,5,8,11-tetraoxo-4-phenethyl-3,6,9,12-tetraazahexadecyl)morpholin-4-ium methanesulfonate | 50
4 | 4-((4S,7S,10S,13S)-10-Benzyl-7-isobutyl-15-methyl-13-((R)-2-methyloxirane-2-carbonyl)-2,5,8,11-tetraoxo-4-phenethyl-3,6,9,12-tetraazahexadecyl)-4-(4-(isobutyryloxy)-3-(prop-2-yn-1-ylcarbamoyl)benzyl)morpholin-4-ium bromide | 15
5 | 4-((4S,7S,10S,13S)-10-Benzyl-7-isobutyl-15-methyl-13-((R)-2-methyloxirane-2-carbonyl)-2,5,8,11-tetraoxo-4-phenethyl-3,6,9,12-tetraazahexadecyl)-4-(4-(butyryloxy)-3-(prop-2-yn-1-yloxy)benzyl)morpholin-4-ium methanesulfonate | 92
6 | 4-((4S,7S,10S,13S)-10-Benzyl-7-isobutyl-15-methyl-13-((R)-2-methyloxirane-2-carbonyl)-2,5,8,11-tetraoxo-4-phenethyl-3,6,9,12-tetraazahexadecyl)-4-(4-(isobutyryloxy)-3-(prop-2-yn-1-yloxy)benzyl)morpholin-4-ium methanesulfonate | 44

Same assay, conditions: late stage modification step, methanesulfonate (mesylate) by ion exchange resin

Row | Substance | step yield [%]
7 | 4-(4-acetoxy-3-((1-(5-((2-PEG3K-ethyl)amino)-5-oxopentyl)-1H-1,2,3-triazol-4-yl)methoxy)benzyl)-4-((4S,7S,10S,13S)-10-benzyl-7-isobutyl-15-methyl-13-((R)-2-methyloxirane-2-carbonyl)-2,5,8,11-tetraoxo-4-phenethyl-3,6,9,12-tetraazahexadecyl)morpholin-4-ium mesylate | 57
